PubChem BioAssay AID1259425, University of Nebraska Medical Center, 2018

- Aim: 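Compare each knockdown with KSR1 silencing using changes in marker transcripts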 (primary screen)
- Cell system: HCT116 human colon cancer cells
- Reagents: siRNA pool against human genes, 50 nM siRNA
- Measured: 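mRNA of six signature genes measured together by branched-DNA assay after 50 nM siRNA pool, blank removed, divided by geometric mean of two housekeeping genes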
- Direction: BNIP3L mRNA: higher = more BNIP3L transcript after knockdown; NDRG1 mRNA: higher = more NDRG1 transcript after knockdown; BNIP3 mRNA: higher = more BNIP3 transcript after knockdown; ALDOC mRNA: higher = more ALDOC transcript after knockdown; ACSL5 mRNA: higher = more ACSL5 transcript after knockdown
This is one part, drawn at random, of about 14,000 reagents. Not stated in the record: the time to read-out.

Target gene	BNIP3L mRNA, set 1	NDRG1 mRNA, set 1	BNIP3 mRNA, set 1	ALDOC mRNA, set 1	ACSL5 mRNA, set 1
LENEP (lens epithelial protein)	0.179	0.824	0.333	0.0501	0.29
MAGEA11 (MAGE family member A11)	0.124	0.101	0.193	0.00964	0.136
TTTY5 (testis expressed transcript, Y-linked 5)	0.338	0.293	0.458	0.0866	0.454
CSTA (cystatin A)	0.195	0.134	0.308	0.0581	0.309
NTSR1 (neurotensin receptor 1)	0.17	0.108	0.239	0.0384	0.231
ZCWPW1 (zinc finger CW-type and PWWP domain containing 1)	0.156	0.0906	0.292	0.0506	0.101
MAP4K1 (mitogen-activated protein kinase kinase kinase kinase 1)	0.207	0.293	0.496	0.0124	0.478
EXOSC1 (exosome component 1)	0.318	0.563	0.587	0.0205	0.304
APOBEC3A (apolipoprotein B mRNA editing enzyme catalytic subunit 3A)	0.244	0.375	0.406	0.0505	0.23
IL25 (interleukin 25)	0.226	0.253	0.486	0.0373	0.147

Continued; the last 2 above are carried over.
Target gene	BNIP3L mRNA, set 1	NDRG1 mRNA, set 1	BNIP3 mRNA, set 1	ALDOC mRNA, set 1	ACSL5 mRNA, set 1
APOBEC3A (apolipoprotein B mRNA editing enzyme catalytic subunit 3A)	0.244	0.375	0.406	0.0505	0.23
IL25 (interleukin 25)	0.226	0.253	0.486	0.0373	0.147
COL25A1 (collagen type XXV alpha 1 chain)	0.108	0.147	0.252	0.0278	0.25
TPP1 (tripeptidyl peptidase 1)	0.222	0.269	0.826	0.0392	0.162
HSP90B1 (heat shock protein 90 beta family member 1)	0.0843	0.179	0.411	0.01	0.213
PCSK6 (proprotein convertase subtilisin/kexin type 6)	0.1	0.224	0.278	0.0465	0.156
OTULINL (OTU deubiquitinase with linear linkage specificity like)	0.119	0.121	0.417	0.0275	0.231
CASKIN2 (CASK interacting protein 2)	0.0776	0.106	0.256	0.00955	0.249
GRIK4 (glutamate ionotropic receptor kainate type subunit 4)	0.147	0.717	0.247	0.0309	0.158
MAPKAPK5 (MAPK activated protein kinase 5)	0.104	0.242	0.265	0.00915	0.199
ATP13A2 (ATPase cation transporting 13A2)	0.0844	0.306	0.322	0.0179	0.235
TET1 (tet methylcytosine dioxygenase 1)	0.12	0.347	0.667	0.042	0.248
